Experimental data from US7741361B2, “Glucocorticoid mimetics, methods of making them, pharmaceutical compositions, and uses thereof” (Boehringer Ingelheim Pharmaceuticals, Inc., priority 2004, dated 2010).
Some of these results come from one statement about several compounds together.

molecular target: T1, human glucocorticoid receptor (GR) complex (Homo sapiens, UniProt P04150); assay: Glucocorticoid receptor competitive binding assay (fluorescence polarization); details: competition with TAMRA-labeled dexamethasone for binding to GR; IC50 by curve fitting of FP signal; read-out: potent activity in the GR binding assay
T1 construct: made in house; host or cells: insect expression system (baculovirus lysate)
T1 sequence (P04150 1-777): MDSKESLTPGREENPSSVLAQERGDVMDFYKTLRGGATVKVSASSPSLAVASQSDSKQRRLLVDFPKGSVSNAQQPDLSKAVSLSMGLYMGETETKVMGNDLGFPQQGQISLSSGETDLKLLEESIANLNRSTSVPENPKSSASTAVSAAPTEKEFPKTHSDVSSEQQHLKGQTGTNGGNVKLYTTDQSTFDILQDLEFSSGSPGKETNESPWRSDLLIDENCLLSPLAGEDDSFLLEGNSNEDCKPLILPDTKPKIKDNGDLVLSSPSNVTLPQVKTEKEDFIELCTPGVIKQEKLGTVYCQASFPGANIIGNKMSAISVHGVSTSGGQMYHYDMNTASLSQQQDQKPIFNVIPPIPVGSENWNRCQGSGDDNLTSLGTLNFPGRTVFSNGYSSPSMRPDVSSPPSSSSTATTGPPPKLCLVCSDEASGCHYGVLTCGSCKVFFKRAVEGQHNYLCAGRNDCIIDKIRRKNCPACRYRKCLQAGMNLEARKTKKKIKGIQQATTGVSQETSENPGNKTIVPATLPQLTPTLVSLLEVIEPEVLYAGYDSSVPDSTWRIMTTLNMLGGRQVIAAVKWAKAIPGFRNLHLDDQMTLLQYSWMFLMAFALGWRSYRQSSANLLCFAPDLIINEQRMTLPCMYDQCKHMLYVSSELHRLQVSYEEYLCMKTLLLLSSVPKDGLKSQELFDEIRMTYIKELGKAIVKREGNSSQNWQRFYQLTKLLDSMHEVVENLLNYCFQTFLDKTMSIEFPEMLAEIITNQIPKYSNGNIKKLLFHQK

SMILES	IC50 [nM]
O=S(=O)(NC(Cc1c[nH]c2ccccc12)C(F)(F)F)c1c(Cl)cc(Br)cc1Cl (stereo not shown) [4-Bromo-2,6-dichloro-N-[2,2,2-trifluoro-1-(1H-indol-3-ylmethyl)ethyl]benzenesulfonamide]	≤ 100
Cc1cc(C)c(S(=O)(=O)NC(Cc2c[nH]c3cccc(Br)c23)C(F)(F)F)c(C)c1 (stereo not shown) [N-[1-(4-Bromo-1H-indol-3-ylmethyl)-2,2,2-trifluoroethyl]-2,4,6-trimethylbenzenesulfonamide]	≤ 100
Cc1cc(C)c(S(=O)(=O)NC(Cc2c[nH]c3c(C)cccc23)C(F)(F)F)c(C)c1 (stereo not shown) [2,4,6-Trimethyl-N-[2,2,2-trifluoro-1-(7-methyl-1H-indol-3-ylmethyl)ethyl]benzenesulfonamide]	≤ 100
CC(C)c1cc(C(C)C)c(S(=O)(=O)NC(Cc2c[nH]c3ccccc23)C(F)(F)F)c(C(C)C)c1 (stereo not shown) [2,4,6-Triisopropyl-N-[2,2,2-trifluoro-1-(1H-indol-3-ylmethyl)ethyl]benzenesulfonamide]	≤ 100
COc1cc(Cl)cc(Cl)c1S(=O)(=O)NC(Cc1c[nH]c2ccccc12)C(F)(F)F (stereo not shown) [2,4-Dichloro-6-methoxy-N-[2,2,2-trifluoro-1-(1H-indol-3-ylmethyl)ethyl]benzenesulfonamide]	≤ 100
Cc1cc(C)c(S(=O)(=O)NC(Cc2c[nH]c3ccc(Br)cc23)C(F)(F)F)c(C)c1 (stereo not shown) [N-[1-(5-Bromo-1H-indol-3-ylmethyl)-2,2,2-trifluoroethyl]-2,4,6-trimethylbenzenesulfonamide]	≤ 100
Cc1ccc2[nH]cc(CC(NS(=O)(=O)c3c(N)cc(Cl)cc3Cl)C(F)(F)F)c2c1 (stereo not shown) [2-Amino-4,6-dichloro-N-[2,2,2-trifluoro-1-(5-methyl-1H-indol-3-ylmethyl)ethyl]benzenesulfonamide]	≤ 100
